Data taken from patent publication US20240025994A1.
Positions count from the first letter of the chain named. These are yes or no findings as the source states them, for the method shown. Some results given as binding are weak or reduced against the parent protein; the word gives no strength. For some assays here: Sequences can lack the tags named with a protein. One block for each binder: values may come before it.

Tests used:
[1] = molecular target: T1, LAG-3 (lymphocyte-activation gene 3) (human) (UniProt P18627); test: ELISA, coated LAG-3, whole murine antibody
T1 sequence (looked up): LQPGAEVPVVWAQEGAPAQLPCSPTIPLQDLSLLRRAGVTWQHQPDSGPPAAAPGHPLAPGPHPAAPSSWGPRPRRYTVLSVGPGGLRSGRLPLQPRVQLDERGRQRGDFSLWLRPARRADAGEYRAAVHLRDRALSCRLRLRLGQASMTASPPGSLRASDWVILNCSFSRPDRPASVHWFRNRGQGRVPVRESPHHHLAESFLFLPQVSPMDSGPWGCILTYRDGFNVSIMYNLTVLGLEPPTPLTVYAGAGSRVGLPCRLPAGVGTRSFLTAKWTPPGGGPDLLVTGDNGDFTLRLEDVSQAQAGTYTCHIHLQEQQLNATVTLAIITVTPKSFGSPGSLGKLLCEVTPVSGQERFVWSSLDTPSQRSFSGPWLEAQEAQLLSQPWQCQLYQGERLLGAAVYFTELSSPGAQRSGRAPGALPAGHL

[2] = molecular target: T1, LAG-3 (lymphocyte-activation gene 3) (human); test: ELISA, coated LAG-3, Anti-Human Fc-HRP detection

B2: HA-1 humanized anti-LAG-3 monoclonal antibody (human IgG4 / Ck) (antibody, V domains shown)
VH: QVQLVQSGAEVKKPGASVKVSCKASGYTFTDTYMHWVRQAPGQGLEWIGKIDPANGNTKYDPKFQGRATITADTSISTAYMELSRLRSDDTAVYYCARDTTVGLDYWGQGTLVTVSS
VL: DIVITQSPAFLSVTPGEKVTITCRASSSVNYMYWYQQKPDASPKLWIYYTSKLASGVPSRFSGSGSGTDYTFTISSLEAEDAATYYCQQWSSNPHTFGGGTKVEIKR
binding [2]: binds

B3: HA-3 humanized anti-LAG-3 monoclonal antibody (human IgG4 / Ck) (antibody, V domains shown)
VH: B2 VH with T28N, F29I
VL: B2 VL with A41Q, S42A, W46L
binding [2]: binds

B4: HA-4 humanized anti-LAG-3 monoclonal antibody (human IgG4 / Ck) (antibody, V domains shown)
VH: B2 VH with T28N, F29I
VL: B2 VL
binding [2]: binds

B5: HA-5 humanized anti-LAG-3 monoclonal antibody (human IgG4 / Ck) (antibody, V domains shown)
VH: B2 VH with T28N, F29I, T30K, R38K, R67K
VL: B2 VL with S59A, D69S
binding [2]: binds

B6: HA-2 humanized anti-LAG-3 monoclonal antibody (human IgG4 / Ck) (antibody, V domains shown)
VH: B2 VH
VL: B2 VL with A41Q, S42A, W46L
binding [2]: binds

Now from value to binder:

binding [1]: binds
B1: MA-3 murine anti-LAG-3 monoclonal antibody (whole antibody, murine IgG1 / Ck) (antibody, V domains shown)
VH: EVKLEESGPELVKPGASVKISCKASGYSFTSYYIHWVKQRPGQGLEWIGWIFPGTGNTRYNEKFKGKATLTADTSSSTVYMQLSGLTSEDSAVYFCARIGGRLTGDAMDYWGQGTSVTVSS
VL: DIVLTQSTASLAVSLGQRATISCRASESVDSYGNSFMHWYQQKPGQPPKLLIYLASNLESGVPARFSGSGSRTDFTLTIDPVEADDAATYYCQQNNEDPWTFGGGTKLEIKA

binding [1]: binds
B7: MA-2 murine anti-LAG-3 monoclonal antibody (whole antibody, murine IgG1 / Ck) (antibody, V domains shown)
VH: EVQLQQSGAELVKPGASVKLSCTASGFNIKDTYMHWVKQRPEQGLEWIGKIDPANGNTKYDPKFQGKATITADTSSNTAYLQLSRLTSEDTAVYYCARDTTVGLDYWGQGTTLTVSS
VL: DIVLTQTPAIMSASLGEKVTMSCRASSSVNYMYWYQQKSDASPKLWIYYTSNLAPGVPARFSGSGSGNSYSLTISSMEGEDAATYYCQQFTSSPSMTFGGGTKLEIKA

binding [1]: binds
B8: MA-4 murine anti-LAG-3 monoclonal antibody (whole antibody, murine IgG1 / Ck) (antibody, V domains shown)
VH: QVKLEESGPGLVQPSQSLSITCTVSAFSLTTYAVHWVRQSPGKGLEWLGVIWSGGSTDYNTAFISRLNITKDNSKSQVFFKMNSLQANDTAIYYCARLDGTFFDYWGQGTTLTVSS
VL: DIVLTQTPAIMSASLGERVTMTCTASSSVSSSYLHWYQQKPGSSPKLWIYSTSNLASGVPARFSGSGSGTSYSLTISSMEAEDAATYYCHQYHRSPPTFGGGTKLEIKA
